The results in this text go back to the supplement of paper PMC12819154, “High-throughput peptide-centric local stability assay extends protein–ligand identification to membrane proteins, tissues and bacteria” (Nature Structural & Molecular Biology, 2025).

Chains of the proteins cited; added tags and fusions are not shown. Lines headed by an entry give the natural chain unless they say otherwise; changes in a name come on top.
UniProt Q9HB40: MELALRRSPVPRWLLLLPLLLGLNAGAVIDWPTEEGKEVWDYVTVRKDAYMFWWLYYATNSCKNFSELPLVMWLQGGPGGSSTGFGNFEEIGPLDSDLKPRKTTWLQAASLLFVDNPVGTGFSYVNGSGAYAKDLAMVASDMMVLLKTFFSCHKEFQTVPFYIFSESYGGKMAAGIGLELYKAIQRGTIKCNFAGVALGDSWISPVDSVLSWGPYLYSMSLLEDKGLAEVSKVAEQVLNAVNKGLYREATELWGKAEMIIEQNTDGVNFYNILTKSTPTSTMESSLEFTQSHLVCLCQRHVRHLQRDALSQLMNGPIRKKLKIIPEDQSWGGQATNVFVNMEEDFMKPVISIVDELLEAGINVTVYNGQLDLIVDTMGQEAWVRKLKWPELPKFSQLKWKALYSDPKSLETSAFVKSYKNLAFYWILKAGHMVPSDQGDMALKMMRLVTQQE
UniProt Q9H939: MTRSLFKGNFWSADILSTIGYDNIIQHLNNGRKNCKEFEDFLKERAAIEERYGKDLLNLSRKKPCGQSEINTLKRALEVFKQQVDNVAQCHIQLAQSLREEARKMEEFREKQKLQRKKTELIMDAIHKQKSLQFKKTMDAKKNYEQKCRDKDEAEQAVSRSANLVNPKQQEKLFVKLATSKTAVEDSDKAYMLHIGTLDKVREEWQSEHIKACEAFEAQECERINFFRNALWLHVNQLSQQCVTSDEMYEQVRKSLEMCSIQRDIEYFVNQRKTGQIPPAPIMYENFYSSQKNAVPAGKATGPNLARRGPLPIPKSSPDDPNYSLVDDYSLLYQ
UniProt Q9HCI6: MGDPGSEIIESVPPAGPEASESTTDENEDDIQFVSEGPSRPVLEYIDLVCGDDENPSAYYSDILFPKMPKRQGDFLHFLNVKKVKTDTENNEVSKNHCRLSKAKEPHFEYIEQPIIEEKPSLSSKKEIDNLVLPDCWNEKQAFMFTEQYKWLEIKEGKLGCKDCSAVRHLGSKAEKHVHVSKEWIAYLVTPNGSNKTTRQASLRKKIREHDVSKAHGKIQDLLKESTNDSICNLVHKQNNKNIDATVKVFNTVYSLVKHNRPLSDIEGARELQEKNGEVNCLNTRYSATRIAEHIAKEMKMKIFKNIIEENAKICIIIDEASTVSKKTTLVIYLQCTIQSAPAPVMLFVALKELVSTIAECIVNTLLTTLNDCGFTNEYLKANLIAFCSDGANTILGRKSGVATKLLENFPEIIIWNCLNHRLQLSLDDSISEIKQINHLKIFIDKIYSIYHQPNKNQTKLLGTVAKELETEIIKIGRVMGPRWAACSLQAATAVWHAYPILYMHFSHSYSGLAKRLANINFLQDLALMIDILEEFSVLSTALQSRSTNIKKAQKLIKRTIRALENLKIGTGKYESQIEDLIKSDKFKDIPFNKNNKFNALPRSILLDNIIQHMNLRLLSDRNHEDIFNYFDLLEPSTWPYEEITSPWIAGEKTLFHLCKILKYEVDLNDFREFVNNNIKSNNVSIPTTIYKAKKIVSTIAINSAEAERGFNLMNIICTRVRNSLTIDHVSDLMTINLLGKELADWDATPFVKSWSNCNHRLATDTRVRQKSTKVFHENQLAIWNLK
UniProt Q9H9A6: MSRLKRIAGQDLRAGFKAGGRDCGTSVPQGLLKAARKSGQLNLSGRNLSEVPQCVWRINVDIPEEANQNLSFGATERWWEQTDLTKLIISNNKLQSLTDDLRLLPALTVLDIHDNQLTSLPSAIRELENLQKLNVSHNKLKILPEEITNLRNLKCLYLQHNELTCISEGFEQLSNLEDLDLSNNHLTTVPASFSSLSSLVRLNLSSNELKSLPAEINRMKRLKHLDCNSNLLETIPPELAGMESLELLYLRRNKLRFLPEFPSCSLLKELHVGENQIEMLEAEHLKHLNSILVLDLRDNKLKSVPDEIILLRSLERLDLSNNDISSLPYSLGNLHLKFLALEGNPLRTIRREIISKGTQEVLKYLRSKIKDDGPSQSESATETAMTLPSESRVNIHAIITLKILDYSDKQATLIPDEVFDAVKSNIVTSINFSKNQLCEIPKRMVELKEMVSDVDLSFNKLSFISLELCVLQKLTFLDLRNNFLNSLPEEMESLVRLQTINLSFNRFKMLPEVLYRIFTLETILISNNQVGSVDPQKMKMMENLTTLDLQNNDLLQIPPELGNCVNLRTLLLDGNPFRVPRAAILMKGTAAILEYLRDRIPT
UniProt Q9NP50: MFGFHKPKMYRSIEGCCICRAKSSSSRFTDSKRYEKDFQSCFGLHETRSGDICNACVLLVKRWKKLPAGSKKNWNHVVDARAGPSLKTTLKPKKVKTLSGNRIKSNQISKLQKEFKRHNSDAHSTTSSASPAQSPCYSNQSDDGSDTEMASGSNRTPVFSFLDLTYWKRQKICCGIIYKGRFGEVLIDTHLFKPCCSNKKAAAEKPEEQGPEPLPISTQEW
UniProt Q9H6Z4: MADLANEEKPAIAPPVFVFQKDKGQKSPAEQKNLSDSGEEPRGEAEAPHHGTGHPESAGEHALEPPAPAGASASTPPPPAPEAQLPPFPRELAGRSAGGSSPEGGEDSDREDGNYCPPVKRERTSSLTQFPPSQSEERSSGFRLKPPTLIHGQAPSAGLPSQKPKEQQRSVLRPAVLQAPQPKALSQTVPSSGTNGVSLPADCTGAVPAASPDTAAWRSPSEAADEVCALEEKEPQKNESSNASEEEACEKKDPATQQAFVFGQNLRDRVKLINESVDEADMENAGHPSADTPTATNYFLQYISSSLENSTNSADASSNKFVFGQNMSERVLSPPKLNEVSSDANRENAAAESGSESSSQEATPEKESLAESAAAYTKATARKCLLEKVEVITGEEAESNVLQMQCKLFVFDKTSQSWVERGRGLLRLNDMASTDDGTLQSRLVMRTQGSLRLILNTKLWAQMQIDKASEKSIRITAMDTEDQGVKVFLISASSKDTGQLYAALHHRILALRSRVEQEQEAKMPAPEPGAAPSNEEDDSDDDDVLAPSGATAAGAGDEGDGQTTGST
UniProt Q9HB75: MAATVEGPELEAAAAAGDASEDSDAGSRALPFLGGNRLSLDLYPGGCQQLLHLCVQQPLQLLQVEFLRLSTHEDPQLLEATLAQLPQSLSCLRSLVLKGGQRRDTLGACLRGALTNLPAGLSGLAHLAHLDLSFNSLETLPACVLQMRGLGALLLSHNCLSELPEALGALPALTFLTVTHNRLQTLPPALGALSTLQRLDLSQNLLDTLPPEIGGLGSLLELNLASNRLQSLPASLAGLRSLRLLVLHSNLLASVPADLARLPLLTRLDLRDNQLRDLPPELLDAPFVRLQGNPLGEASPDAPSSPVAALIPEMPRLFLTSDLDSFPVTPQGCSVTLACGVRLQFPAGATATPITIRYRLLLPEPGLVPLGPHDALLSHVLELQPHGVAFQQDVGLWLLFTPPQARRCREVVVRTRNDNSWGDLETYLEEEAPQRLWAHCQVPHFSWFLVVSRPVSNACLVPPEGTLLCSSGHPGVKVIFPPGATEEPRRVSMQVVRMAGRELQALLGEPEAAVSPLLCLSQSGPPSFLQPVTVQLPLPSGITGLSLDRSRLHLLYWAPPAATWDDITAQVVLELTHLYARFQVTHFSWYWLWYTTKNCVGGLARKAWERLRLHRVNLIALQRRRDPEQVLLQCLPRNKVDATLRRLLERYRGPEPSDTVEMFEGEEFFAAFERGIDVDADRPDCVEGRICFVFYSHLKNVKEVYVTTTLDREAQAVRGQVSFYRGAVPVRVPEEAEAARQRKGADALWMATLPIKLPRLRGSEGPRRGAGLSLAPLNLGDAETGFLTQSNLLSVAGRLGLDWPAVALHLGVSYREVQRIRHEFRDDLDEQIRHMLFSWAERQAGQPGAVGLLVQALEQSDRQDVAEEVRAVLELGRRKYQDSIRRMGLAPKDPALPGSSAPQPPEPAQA
UniProt Q9H773: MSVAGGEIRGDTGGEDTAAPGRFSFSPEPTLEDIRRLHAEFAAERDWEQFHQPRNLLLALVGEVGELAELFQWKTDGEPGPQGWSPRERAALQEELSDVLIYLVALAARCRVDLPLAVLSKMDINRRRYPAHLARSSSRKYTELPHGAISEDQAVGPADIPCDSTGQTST
UniProt Q9HAV0, whole entry: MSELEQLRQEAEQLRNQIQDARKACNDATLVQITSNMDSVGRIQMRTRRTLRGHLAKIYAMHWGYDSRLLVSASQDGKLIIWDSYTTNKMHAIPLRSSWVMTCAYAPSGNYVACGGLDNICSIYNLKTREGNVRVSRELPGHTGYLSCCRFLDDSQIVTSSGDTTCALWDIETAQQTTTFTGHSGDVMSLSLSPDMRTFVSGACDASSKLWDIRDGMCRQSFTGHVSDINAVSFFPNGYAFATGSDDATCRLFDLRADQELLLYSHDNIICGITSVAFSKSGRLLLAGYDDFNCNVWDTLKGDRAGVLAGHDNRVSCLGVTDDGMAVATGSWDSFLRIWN
UniProt Q9NNW5: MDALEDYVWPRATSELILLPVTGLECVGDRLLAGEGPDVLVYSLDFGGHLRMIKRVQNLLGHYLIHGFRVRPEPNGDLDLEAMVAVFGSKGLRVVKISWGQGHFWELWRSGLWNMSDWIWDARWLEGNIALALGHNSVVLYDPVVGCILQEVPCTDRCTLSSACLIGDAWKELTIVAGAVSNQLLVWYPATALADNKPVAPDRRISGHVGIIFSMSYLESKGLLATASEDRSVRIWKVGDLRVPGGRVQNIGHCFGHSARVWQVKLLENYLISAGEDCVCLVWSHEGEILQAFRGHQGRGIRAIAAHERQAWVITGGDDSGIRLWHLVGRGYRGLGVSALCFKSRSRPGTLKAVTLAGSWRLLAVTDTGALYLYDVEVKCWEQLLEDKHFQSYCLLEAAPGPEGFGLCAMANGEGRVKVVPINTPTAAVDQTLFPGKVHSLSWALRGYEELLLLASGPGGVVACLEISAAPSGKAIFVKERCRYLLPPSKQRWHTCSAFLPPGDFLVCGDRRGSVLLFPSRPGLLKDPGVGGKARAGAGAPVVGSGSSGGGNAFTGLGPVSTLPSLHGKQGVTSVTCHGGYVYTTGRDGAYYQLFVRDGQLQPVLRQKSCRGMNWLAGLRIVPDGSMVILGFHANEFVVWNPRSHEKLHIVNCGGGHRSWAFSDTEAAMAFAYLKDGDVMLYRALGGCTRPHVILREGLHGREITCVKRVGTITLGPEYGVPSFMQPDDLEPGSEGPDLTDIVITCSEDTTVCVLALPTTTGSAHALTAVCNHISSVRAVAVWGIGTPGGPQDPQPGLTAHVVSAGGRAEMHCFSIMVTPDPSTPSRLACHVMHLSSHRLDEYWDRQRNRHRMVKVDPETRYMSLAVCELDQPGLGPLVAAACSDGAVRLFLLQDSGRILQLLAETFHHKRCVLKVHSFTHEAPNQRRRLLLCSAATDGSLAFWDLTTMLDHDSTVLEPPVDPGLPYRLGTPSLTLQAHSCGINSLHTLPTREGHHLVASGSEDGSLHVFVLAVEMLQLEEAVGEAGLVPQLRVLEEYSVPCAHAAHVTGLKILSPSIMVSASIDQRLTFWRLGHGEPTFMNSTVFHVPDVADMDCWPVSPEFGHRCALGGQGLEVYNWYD

The list shows a part of the results. Most values lie at the level of the controls, where differences are scatter.

Compound in the assay: CN[C@@H]1C[C@H]2O[C@@](C)([C@@H]1OC)n1c3ccccc3c3c4c(c5c6ccccc6n2c5c31)C(=O)NC4 [staurosporine]
The assay is described as follows: log2 fold change of tryptic peptide abundance, ligand vs vehicle (limited proteolysis) (log2 ratio); higher = more trypsin-susceptible (destabilized). To be noted: ligand concentration: 20 uM; sample: K562 cleared lysate; digestion: 4 min, 22 C (HT-PELSA RT4min, Orbitrap Astral).
As for “SCPEP1 (peptide sequence: AGHMVPSDQGDMALK, peptide start residue: 429) (UniProt Q9HB40)”, the log2 fold change was -0.178.

With “PSTPIP2 (peptide sequence: DKDEAEQAVSR, peptide start residue: 150) (UniProt Q9H939)”, the log2 fold change is 0.373.

For “KIAA1586 (peptide sequence: IGTGKYESQIEDLIK, peptide start residue: 569) (UniProt Q9HCI6)”, the log2 fold change worked out at 0.331.

Regarding “LRRC40 (peptide sequence: NLSEVPQCVWR, peptide start residue: 47) (UniProt Q9H9A6)”, the log2 fold change is 0.468.

As to “UniProt Q9NP50 (peptide sequence: IKSNQISK, peptide start residue: 103)”, the log2 fold change is 0.421.

As for “RANBP3 (peptide sequence: DTGQLYAALHHR, peptide start residue: 496) (UniProt Q9H6Z4)”, the log2 fold change was determined as 0.544.

As for “PIDD1 (peptide sequence: LLVLHSNLLASVPADLAR, peptide start residue: 244) (UniProt Q9HB75)”, the log2 fold change stood at 0.332.

For “UniProt Q9H773 (peptide sequence: LHAEFAAER, peptide start residue: 37)”, the log2 fold change is -0.717.

Take “GNB4 (peptide sequence: IYAMHWGYDSR, peptide start residue: 58) (UniProt Q9HAV0)”: the log2 fold change was -0.512.

Take “WDR6 (peptide sequence: DGQLQPVLR, peptide start residue: 598) (UniProt Q9NNW5)”: the log2 fold change is -0.253.

Regarding “TAF9B (peptide sequence: DALVMAQILK, peptide start residue: 15) (UniProt Q9HBM6)”, the log2 fold change is -0.0729.
